# The list shows a part of the results.
# Columns and labels:
# Assay in all cases: glycan array binding signal (z-score within array); higher = stronger binding
# Conditions in all cases: glycan notation: IUPAC condensed, linker removed
# [1] = biological target: GlcNAc(b1-4)GlcNAc(b1-4)GlcNAc(b1-4)GlcNAc(b1-4)GlcNAc(b1-4)GlcNAc
# Summary of the method: (§1)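 Arrays were curated from the Consortium for Functional Glycomics database, 3228 in total, and kept only where the protein sequence was available. Binding is expressed as a within-array Z-score. This score was averaged across arrays of the same protein sequence at different concentrations or buffers and across linkers, and negative values can be read as non-binding.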
# [2] = biological target: GlcNAc(b1-4)[GlcNAc(b1-6)]GalNAc
# Summary of the method: as §1
# [3] = biological target: GlcNAc(b1-6)Gal(b1-4)GlcNAc
# Summary of the method: as §1
# GlcNAc(b1-6)GalNAc = biological target: GlcNAc(b1-6)GalNAc
# Summary of the method: as §1
# [4] = biological target: GlcNAc6S(b1-3)Gal(b1-4)GlcNAc
# Summary of the method: as §1
# Kdn(a2-3)Gal(b1-3)GalNAc = biological target: Kdn(a2-3)Gal(b1-3)GalNAc
# Summary of the method: as §1
# Kdn(a2-3)Gal(b1-3)GlcNAc = biological target: Kdn(a2-3)Gal(b1-3)GlcNAc
# Summary of the method: as §1
# Kdn(a2-3)Gal(b1-4)Glc = biological target: Kdn(a2-3)Gal(b1-4)Glc
# Summary of the method: as §1
# Kdn(a2-3)Gal(b1-4)GlcNAc = biological target: Kdn(a2-3)Gal(b1-4)GlcNAc
# Summary of the method: as §1
# [5] = biological target: Kdn(a2-3)Gal(b1-4)[Fuc(a1-3)]GlcNAc
# Summary of the method: as §1
# Kdn(a2-6)Gal(b1-4)GlcNAc = biological target: Kdn(a2-6)Gal(b1-4)GlcNAc
# Summary of the method: as §1
# [6] = biological target: Man(a1-2)Man(a1-2)Man(a1-3)Man
# Summary of the method: as §1
# [7] = biological target: Man(a1-2)Man(a1-2)Man(a1-6)[Man(a1-3)]Man
# Summary of the method: as §1
# Man(a1-2)Man(a1-3)Man = biological target: Man(a1-2)Man(a1-3)Man
# Summary of the method: as §1
# [8] = biological target: Man(a1-2)Man(a1-3)[Man(a1-2)Man(a1-6)]Man
# Summary of the method: as §1
# [9] = biological target: Man(a1-2)Man(a1-3)[Man(a1-2)Man(a1-6)]Man(a1-6)[Man(a1-2)Man(a1-2)Man(a1-3)]Man
# Summary of the method: as §1
# [10] = biological target: Man(a1-2)Man(a1-3)[Man(a1-2)Man(a1-6)]Man(a1-6)[Man(a1-2)Man(a1-2)Man(a1-3)]Man(b1-4)GlcNAc(b1-4)GlcNAc
# Summary of the method: as §1
# [11] = biological target: Man(a1-2)Man(a1-3)[Man(a1-6)]Man(a1-6)[Man(a1-2)Man(a1-3)]Man(b1-4)GlcNAc(b1-4)GlcNAc
# Summary of the method: as §1
# [12] = biological target: Man(a1-2)Man(a1-6)[Man(a1-3)]Man(a1-6)[Man(a1-2)Man(a1-2)Man(a1-3)]Man
# Summary of the method: as §1
# [13] = biological target: Man(a1-2)Man(a1-6)[Man(a1-3)]Man(a1-6)[Man(a1-2)Man(a1-2)Man(a1-3)]Man(b1-4)GlcNAc(b1-4)GlcNAc
# Summary of the method: as §1
# Man(a1-3)[Man(a1-6)]Man = biological target: Man(a1-3)[Man(a1-6)]Man
# Summary of the method: as §1
# [14] = biological target: Man(a1-3)[Man(a1-6)]Man(a1-6)[Man(a1-2)Man(a1-3)]Man(b1-4)GlcNAc(b1-4)GlcNAc
# Summary of the method: as §1
# [15] = biological target: Man(a1-3)[Man(a1-6)]Man(a1-6)[Man(a1-3)]Man
# Summary of the method: as §1
# [16] = biological target: Man(a1-3)[Man(a1-6)]Man(a1-6)[Man(a1-3)]Man(b1-4)GlcNAc(b1-4)GlcNAc
# Summary of the method: as §1
# [17] = biological target: Man(a1-3)[Man(a1-6)]Man(b1-4)GlcNAc(b1-4)GlcNAc
# Summary of the method: as §1
# [18] = biological target: Man(a1-3)[Man(a1-6)]Man(b1-4)GlcNAc(b1-4)[Fuc(a1-6)]GlcNAc
# Summary of the method: as §1
# Man(a1-6)Man = biological target: Man(a1-6)Man
# Summary of the method: as §1
# Man(b1-4)GlcNAc = biological target: Man(b1-4)GlcNAc
# Summary of the method: as §1
# MurNAc(b1-4)GlcNAc = biological target: MurNAc(b1-4)GlcNAc
# Summary of the method: as §1
# Neu5Ac(a2-3)Gal = biological target: Neu5Ac(a2-3)Gal
# Summary of the method: as §1
# [19] = biological target: Neu5Ac(a2-3)Gal(b1-3)GalNAc
# Summary of the method: as §1
# [20] = biological target: Neu5Ac(a2-3)Gal(b1-3)GalNAc(b1-3)Gal(a1-4)Gal(b1-4)Glc
# Summary of the method: as §1
# [21] = biological target: Neu5Ac(a2-3)Gal(b1-3)GalNAc(b1-4)Gal(b1-4)Glc
# Summary of the method: as §1
# [22] = biological target: Neu5Ac(a2-3)Gal(b1-3)GalNAc(b1-4)[Neu5Ac(a2-3)]Gal(b1-4)Glc
# Summary of the method: as §1
# [23] = biological target: Neu5Ac(a2-3)Gal(b1-3)GalNAc(b1-4)[Neu5Ac(a2-8)Neu5Ac(a2-3)]Gal(b1-4)Glc
# Summary of the method: as §1
# [24] = biological target: Neu5Ac(a2-3)Gal(b1-3)GalNAc6S
# Summary of the method: as §1
# [25] = biological target: Neu5Ac(a2-3)Gal(b1-3)GlcNAc
# Summary of the method: as §1
# [26] = biological target: Neu5Ac(a2-3)Gal(b1-3)GlcNAc(b1-2)Man
# Summary of the method: as §1
# [27] = biological target: Neu5Ac(a2-3)Gal(b1-3)GlcNAc(b1-2)Man(a1-3)[GlcNAc(b1-4)][Neu5Ac(a2-3)Gal(b1-3)GlcNAc(b1-2)Man(a1-6)]Man(b1-4)GlcNAc(b1-4)GlcNAc
# Summary of the method: as §1
# [28] = biological target: Neu5Ac(a2-3)Gal(b1-3)GlcNAc(b1-2)Man(a1-3)[Neu5Ac(a2-3)Gal(b1-3)GlcNAc(b1-2)Man(a1-6)]Man(b1-4)GlcNAc(b1-4)GlcNAc
# Summary of the method: as §1
# [29] = biological target: Neu5Ac(a2-3)Gal(b1-3)GlcNAc(b1-2)[Neu5Ac(a2-3)Gal(b1-3)GlcNAc(b1-4)]Man(a1-6)[Neu5Ac(a2-3)Gal(b1-3)GlcNAc(b1-2)Man(a1-3)]Man(b1-4)GlcNAc(b1-4)GlcNAc
# Summary of the method: as §1
# [30] = biological target: Neu5Ac(a2-3)Gal(b1-3)GlcNAc(b1-3)Gal(b1-3)GlcNAc
# Summary of the method: as §1
# [31] = biological target: Neu5Ac(a2-3)Gal(b1-3)GlcNAc(b1-3)Gal(b1-4)GlcNAc
# Summary of the method: as §1
# [32] = biological target: Neu5Ac(a2-3)Gal(b1-3)GlcNAc(b1-3)GalNAc
# Summary of the method: as §1
# [33] = biological target: Neu5Ac(a2-3)Gal(b1-3)GlcNAc(b1-6)GalNAc
# Summary of the method: as §1
binder,measurement,setting,value
"Awp3 (Candida glabrata), B4UN32 (protein) MISFVTLLAILGLLSISWADQTVRSVAGDQRVTDPVIVGDNSILDYYGGSNYDFSNNFEIGRGTLYIGKESYFSSFQSAPTDVPNSFHLLIKNTNNLQNNGQFIIENIKRHANQCSNSSIQVFPINFQNDGEFEIISGGVEGRCCLPTSVIAPQNFLNNGKFYYKVLTDTGSIYSGSCMQNVDIGASTTTTVNNNLWEFTGSINAQINGAVSGAAQINLDGSNMFVNANTFSGQVVNLINGGSFLQTSDPLSNIVVINGLGTSDTGVTSIAVKGKGKSFTYNPSSGIVKLTTVEGKTYAYQIGCGYNTKKFITNNDSGASYESADNFFVLTYSEPYSPQTCQLENSSIFSSNFISTSTSSSSSSSSASSLPSSMSSSLPSSLSSSLSSSLSSSMSSSMSSLFIIPPPYTTTRSSGSSIIDTEIVSFYSTTDSPGHTITGTTTTTLYGPHTHSSVSTPSSSSESSTTSNSSIESSSLPHTSVSSTPESSITPSSNTISSSPTSDFSSVQSSSIMESSSVVASSSVINSSSIVDSSSSSASSLPSSMSSSLSSSMSSSLPSSMSSSLSSSLSSSLSSSMSSSMSSLFIIPPPYTTTRSSGSSIIDTEIVSFYSTTDSPGHTITGTTTTTLYGPHTHSSVSTPSSSSESSTTSNSSIESSSLPHTSVSSTPESSITPSSNTISSSPTSDFSSVQSSSIMESSSVVASSSVINSSSIVDSSSSSASSLPSSMPSSLPSSMSSSLSSSMSSSLSSSLSSSLSSSMSSSMSSLFIIPPPYTTTRSSGSSIIDTEIVSFYSTTDSPGHTITGTTTTTLYGPHTHSSVSTPSSSSESSTTSNSSIESSSLPHTSVSSTPESSITPSSNTISSSPTSDFSSVQSSSIMESSSVVASSSATQSSSVINSSSIVDSSSSSASSLPSSMPSSLPSSLSSSLSSSLSSSMSSSMSSLFIIPPPYTTTRSSGSSIIDTEIVSFYSTTDSPGHTITGTTTTTLYESSIYSSSSSTIQESELSNTSRTTMTSNSSVSISSTSSRSSFSNTKSSTIVISQSASLPDSKTDIILSTSSNIGYSSRSLLSDLGTSISDSDIHHSVLHSTESYSSNESGTNPFTSIASLSNFIPESSSHTSTALGSENSVISSDILTTMSHPVATNSGDKPTTPKRSEQVSTTMTSSGPTPDTSSFDTDGMSAYSRPEFTTNSLEVNKSSTSQLGNNKQTFSNLQLESTRPHSENEVDNNTRLLQSIQQSSTYGTNNVNPLSPTGSISIPLTEDGQGDNNNWNSPATNDLCTQISFNLTATTITVTDRITITDSIHDISSEVITSYIYQTIVDQKTVTQTVDGKSLANKMSSIPKPSSRSLIQPQPPVAIELQEGAASTSRVSLVSLFISIILVLL",glycan array binding signal (z-score),[1],-0.143
same,glycan array binding signal (z-score),[2],-0.65
same,glycan array binding signal (z-score),[3],1.14
same,glycan array binding signal (z-score),GlcNAc(b1-6)GalNAc,-0.171
same,glycan array binding signal (z-score),[4],0.783
same,glycan array binding signal (z-score),Kdn(a2-3)Gal(b1-3)GalNAc,0.344
same,glycan array binding signal (z-score),Kdn(a2-3)Gal(b1-3)GlcNAc,-0.574
same,glycan array binding signal (z-score),Kdn(a2-3)Gal(b1-4)Glc,0.004
same,glycan array binding signal (z-score),Kdn(a2-3)Gal(b1-4)GlcNAc,-0.204
same,glycan array binding signal (z-score),[5],1.25
same,glycan array binding signal (z-score),Kdn(a2-6)Gal(b1-4)GlcNAc,-0.476
same,glycan array binding signal (z-score),[6],-0.108
same,glycan array binding signal (z-score),[7],-0.552
same,glycan array binding signal (z-score),Man(a1-2)Man(a1-3)Man,0.292
same,glycan array binding signal (z-score),[8],-0.27
same,glycan array binding signal (z-score),[9],-0.686
same,glycan array binding signal (z-score),[10],-0.236
same,glycan array binding signal (z-score),[11],0.584
same,glycan array binding signal (z-score),[12],-0.994
same,glycan array binding signal (z-score),[13],0.117
same,glycan array binding signal (z-score),Man(a1-3)[Man(a1-6)]Man,0.869
same,glycan array binding signal (z-score),[14],0.272
same,glycan array binding signal (z-score),[15],-0.802
same,glycan array binding signal (z-score),[16],-1.04
same,glycan array binding signal (z-score),[17],-0.824
same,glycan array binding signal (z-score),[18],0.048
same,glycan array binding signal (z-score),Man(a1-6)Man,0.889
same,glycan array binding signal (z-score),Man(b1-4)GlcNAc,0.34
same,glycan array binding signal (z-score),MurNAc(b1-4)GlcNAc,-0.501
same,glycan array binding signal (z-score),Neu5Ac(a2-3)Gal,-1.36
same,glycan array binding signal (z-score),[19],-0.008
same,glycan array binding signal (z-score),[20],-0.882
same,glycan array binding signal (z-score),[21],0.473
same,glycan array binding signal (z-score),[22],-0.398
same,glycan array binding signal (z-score),[23],-0.714
same,glycan array binding signal (z-score),[24],-0.569
same,glycan array binding signal (z-score),[25],0.353
same,glycan array binding signal (z-score),[26],0.208
same,glycan array binding signal (z-score),[27],0.337
same,glycan array binding signal (z-score),[28],0.813
same,glycan array binding signal (z-score),[29],0.194
same,glycan array binding signal (z-score),[30],-2.3
same,glycan array binding signal (z-score),[31],0.37
same,glycan array binding signal (z-score),[32],0.123
same,glycan array binding signal (z-score),[33],-0.639
